Over roughly 3,200 compounds, “TSA(with NAD+) / Primary screening (TSA) / delta Tm (K)” has its median near -0.04; the highest 2% begin near 0.37. Some of the results follow.

By UniProt entry, the sequences of proteins in these tests, tags left out. Residues count along the entry.
UniProt Q96EB6, 2-747 limits assumed: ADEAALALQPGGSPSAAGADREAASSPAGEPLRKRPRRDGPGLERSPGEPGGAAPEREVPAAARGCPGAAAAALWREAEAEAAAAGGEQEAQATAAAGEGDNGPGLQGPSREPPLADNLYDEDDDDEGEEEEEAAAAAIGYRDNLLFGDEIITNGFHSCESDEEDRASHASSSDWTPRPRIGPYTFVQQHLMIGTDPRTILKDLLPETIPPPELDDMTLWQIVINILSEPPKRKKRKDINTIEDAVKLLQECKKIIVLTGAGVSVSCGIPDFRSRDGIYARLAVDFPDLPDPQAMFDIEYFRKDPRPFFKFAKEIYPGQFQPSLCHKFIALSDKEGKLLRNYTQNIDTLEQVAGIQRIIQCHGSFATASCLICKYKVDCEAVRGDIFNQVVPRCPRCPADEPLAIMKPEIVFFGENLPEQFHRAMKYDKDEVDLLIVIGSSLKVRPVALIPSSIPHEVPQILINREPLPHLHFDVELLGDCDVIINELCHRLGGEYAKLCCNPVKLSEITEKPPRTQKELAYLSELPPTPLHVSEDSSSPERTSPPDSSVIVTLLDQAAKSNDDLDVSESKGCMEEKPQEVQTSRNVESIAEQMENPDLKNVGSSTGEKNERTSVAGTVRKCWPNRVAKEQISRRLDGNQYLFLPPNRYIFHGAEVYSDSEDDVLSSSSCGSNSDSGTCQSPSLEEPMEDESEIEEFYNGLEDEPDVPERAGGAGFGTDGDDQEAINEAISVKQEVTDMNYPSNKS

The values below come from PMC6925144, “A prospective compound screening contest identified broader inhibitors for Sirtuin 1” (Scientific Reports, 2019).

The target of this assay is NAD-dependent deacetylase Sirtuin 1 (human, UniProt Q96EB6). As to the kind of experiment: primary screen, delta tm. Further details: single well (n = 1, as 'the same TSA'). Conditions: 10 µM.
In the case of `O=C(COC(=O)Cc1coc2cc(O)ccc12)Nc1cccc2ccccc12`, the “TSA(with NAD+) / Primary screening (TSA) / delta Tm (K)” value amounted to 0.05 K.
As to `O=C1NC(=S)NC(=O)C1=Cc1cc2ccccc2[nH]c1=O`, the “TSA(with NAD+) / Primary screening (TSA) / delta Tm (K)” value is on record as -0.09 K.
Turning to `O=C1/C(=C\c2ccc(Br)cc2F)Cc2ccccc21`, the “TSA(with NAD+) / Primary screening (TSA) / delta Tm (K)” value was -0.01 K.
To `COc1cccc(C2C(C(=O)c3ccc(F)cc3)=C(O)C(=O)N2CCCN2CCOCC2)c1OC` (stereo not shown) belongs -0.03 K; to `Cc1cc(N2CCN(c3ncc(C(F)(F)F)cc3Cl)CC2)n2ncnc2n1`, -0.01 K; to `CC(OC(=O)CC(NC(=O)OC(C)(C)C)C1CC1)c1cnc2ccccc2c1` (stereo not shown), 0.03 K.
The figure for `Cc1ccc(N(C)S(=O)(=O)c2cccc(C(N)=O)c2)cc1` is -0.04 K.
As for `Cc1ccc(C23CC4CC(CC(C(=O)OCC(=O)NC(=O)NCc5ccccc5)(C4)C2)C3)cc1`, the “TSA(with NAD+) / Primary screening (TSA) / delta Tm (K)” value came to 0.16 K.
As for `CC(C)C(C)Nc1ncnc2ccsc12` (stereo not shown), the “TSA(with NAD+) / Primary screening (TSA) / delta Tm (K)” value is -0.16 K.
On to `Cc1cccc(C(=O)Nc2ccccc2Oc2ccccc2)c1`, for which the “TSA(with NAD+) / Primary screening (TSA) / delta Tm (K)” value was -0.13 K.
With `Cc1cccc(NC(=O)CN2CCN(C(=O)c3ccccc3Oc3ccccc3)CC2)c1C`, the “TSA(with NAD+) / Primary screening (TSA) / delta Tm (K)” value is given as -0.16 K.
For `NC(=O)C1CCN(c2cc(N3CCCC3)ncn2)C1` (stereo not shown), the “TSA(with NAD+) / Primary screening (TSA) / delta Tm (K)” value is recorded as -0.08 K.
The figure for `CC(CNC(=O)c1cccc(Nc2ncccn2)c1)N1CCOCC1` (stereo not shown) is -0.22 K.
The figure for `NC(=O)c1cc(NC(=O)c2nn(-c3ccc(F)cc3)c3c2CCCC3)ccc1Cl` is -0.03 K; for `O=C1NC(=O)C2(CCN(C(=O)C34CC5CC(CC(Br)(C5)C3)C4)CC2)N1` it is 0.05 K.
To `COCCNc1nnc(SCc2cc(=O)oc3c(C)c(O)ccc23)s1` belongs 0.07 K; to `Cc1ccc(N2C(=O)CN=C2S)cc1`, -0.13 K; to `O=S1(=O)CCC(CSc2nnc(NCC3CCCO3)s2)CC1` (stereo not shown), -0.25 K.
As for `O=C(O)c1ccc2[nH]c3c(c2c1)CCCCC3`, the “TSA(with NAD+) / Primary screening (TSA) / delta Tm (K)” value is recorded as 0.03 K.
The figure for `O=S1(=O)CCC(N2CCN(c3ncnc4c3oc3ccccc34)CC2)C1` (stereo not shown) is -0.04 K; for `O=C(CCN1C(=O)NC2(CCCCC2)C1=O)NC1C2CC3CC(C2)CC1C3` (stereo not shown) it is -0.13 K; for `O=C(O)[C@@H]1C[C@H]1C(=O)O` it is -0.12 K.
In the case of `CC(C)c1noc2ncc(C(=O)Nc3cc(C(N)=O)ccc3N3CCCC3)cc12`, the “TSA(with NAD+) / Primary screening (TSA) / delta Tm (K)” value is on record as -0.03 K.
The figure for `O=c1oc2ccc3ccccc3c2cc1-c1nc2ccccc2[nH]1` is -0.04 K; for `CC(C(=O)NC(c1ccccc1)C1CC1)n1cnc2ccccc21` (stereo not shown) it is 0.05 K; for `O=C(Oc1ccc2oc3ccccc3c2c1)C1CC1` it is -0.32 K.
The figure for `O=C(CCl)c1c(-c2ccccc2)[nH]c2ccccc12` is -0.03 K; for `COC(=O)c1cc(Br)ccc1NC(=O)c1cccc(S(=O)(=O)N(C)c2ccc(C)cc2)c1` it is -0.04 K.
To `COc1cccc(-c2nc(CSc3nnc(CN4CCCCC4)n3-c3ccc(F)cc3)cs2)c1` belongs -0.04 K.
On to `COc1cccc(C(=O)C2=C(O)C(=O)N(CCCN3CCOCC3)C2c2ccccc2)c1` (stereo not shown), for which the “TSA(with NAD+) / Primary screening (TSA) / delta Tm (K)” value is reported as -0.04 K.
For `CC(=O)N(c1nn(CN2CCN(c3ccc(C(N)=O)cn3)CC2)c(=S)s1)C1CC1`, the “TSA(with NAD+) / Primary screening (TSA) / delta Tm (K)” value is -0.33 K.
To `Cc1ccc(-c2cc(C(=O)Nc3ccc(C(N)=O)cc3)c3ccccc3n2)c(C)c1` belongs -0.06 K.
To `O=C1CCc2c(OCc3cc(=O)n4ccccc4n3)cccc21` belongs -0.22 K; to `COc1cc(CNc2ccc3nnnn3n2)cc(OC)c1OC`, -0.03 K.
To `CC(C#N)(NC(=O)CNc1cccnc1-c1ccccc1)C1CC1` (stereo not shown) belongs -0.08 K; to `O=C1CC(N2CCN(c3cnccn3)CC2)C(=O)N1CCc1ccccc1` (stereo not shown), 0.06 K.
As for `COc1ccc(C(=O)NC2CCCC2(C)CO)cc1-c1ccccn1` (stereo not shown), the “TSA(with NAD+) / Primary screening (TSA) / delta Tm (K)” value is listed as -0.23 K.
As to `Cc1cc(C(=O)COC(=O)C23CC4CC(CC(O)(C4)C2)C3)c(C)n1-c1c(C)n(C)n(-c2ccccc2)c1=O`, the “TSA(with NAD+) / Primary screening (TSA) / delta Tm (K)” value is on record as -0.23 K.
The figure for `CCc1cc2c(N3CCCN(CC(N)=O)CC3)ncnc2s1` is -0.02 K.
To `Cc1ccc(CN(C(=O)NCc2ccco2)C2CCc3ccccc32)cc1` (stereo not shown) belongs -0.13 K.
Turning to `O=C(O)C1CC(=O)N(c2ccc(S(=O)(=O)Nc3ccc4c(c3)CCC4)cc2)C1` (stereo not shown), the “TSA(with NAD+) / Primary screening (TSA) / delta Tm (K)” value is recorded as -0.03 K.
Regarding `Cc1ccccc1CSc1nc2ccsc2c(=O)n1C`, the “TSA(with NAD+) / Primary screening (TSA) / delta Tm (K)” value is on record as -0.13 K.
The figure for `CCC(NC)C(=O)O` (stereo not shown) is -0.11 K; for `Cc1ccc(-c2sc(-c3ccccc3)nc2CC(=O)NNC(=O)C2COc3ccccc3O2)cc1` (stereo not shown) it is 0.27 K.
Take `O=C(CCc1nc2ccccc2o1)Nc1ccc(N2CCN(Cc3ccccc3)CC2)cc1`: the “TSA(with NAD+) / Primary screening (TSA) / delta Tm (K)” value was -0.11 K.
The figure for `CCC(CC)NCCN` is -0.09 K; for `Cc1noc(C)c1C(=O)OCC(=O)Nc1ccc(C(N)=O)cc1` it is -0.01 K; for `CN(C)C(CNC(=O)c1ccc2c(c1)OCC(=O)N2)c1ccco1` (stereo not shown) it is 0.15 K.
As for `COC(=O)c1ccc2[nH]c(CN)nc2c1`, the “TSA(with NAD+) / Primary screening (TSA) / delta Tm (K)” value was -0.05 K.
The figure for `CSc1ccc(NC(=O)C2CC(=O)Nc3cc(F)ccc32)cc1` (stereo not shown) is -0.16 K; for `COCC(N)CO` (stereo not shown) it is -0.09 K; for `Cc1ccccc1C(=O)N1CCC(C(=O)NCCc2nc3ccccc3[nH]2)CC1` it is -0.01 K.
As to `COc1ccccc1NC(=O)COc1ccc(C(=O)OCC(=O)NCCC2=CCCCC2)cc1OC`, the “TSA(with NAD+) / Primary screening (TSA) / delta Tm (K)” value is reported as -0.01 K.
`O=C(Cn1cnc2sccc2c1=O)c1ccc2c(c1)Cc1ccccc1-2`: the “TSA(with NAD+) / Primary screening (TSA) / delta Tm (K)” value was found to be 0.05 K.
For `Cc1c(CC(=O)O)c(=O)[nH]c2c1c(=O)[nH]n2C`, the “TSA(with NAD+) / Primary screening (TSA) / delta Tm (K)” value is -0.34 K.
To `O=C1/C(=C/c2cccc(O)c2)Oc2cc(O)ccc21` belongs -0.14 K; to `CCN(CC(=O)Nc1cc(C(N)=O)cc(C(N)=O)c1)Cc1cccc(F)c1`, 0.07 K; to `COc1cccc(C(=O)C2=C(O)C(=O)N(CCCN3CCOCC3)C2c2cccnc2)c1` (stereo not shown), -0.01 K.
As for `CC(C)c1cc(=O)oc2cc(OCc3ccc(C(N)=O)cc3)ccc12`, the “TSA(with NAD+) / Primary screening (TSA) / delta Tm (K)” value is recorded as 0.03 K.
The figure for `CN(C)c1c(Cl)cccc1NC(=O)c1ccc(Cl)nc1Cl` is -0.04 K; for `CC(OC(=O)COc1ccc2c(c1)CCC2)C(=O)Nc1ccc(C(N)=O)cc1` (stereo not shown) it is -0.12 K.
In the case of `CN(Cc1ccc(O)cc1)C(=O)C1c2ccccc2Oc2ccccc21`, the “TSA(with NAD+) / Primary screening (TSA) / delta Tm (K)” value was -0.18 K.
To `O=C(O)c1ccc(OCc2cccs2)cc1` belongs 0.01 K; to `c1nc(N2CCSCC2)c2[nH]cnc2n1`, -0.03 K.
The figure for `CN(C)CCCOC1CCN(c2ncnc3ccc(S(C)(=O)=O)cc23)CC1` is -0.05 K; for `COC(=O)NC(CC(C)C)C(=O)N(C)Cc1nc2ccccc2[nH]1` (stereo not shown) it is -0.11 K; for `Cn1ccc(NC(=O)C2CC(=O)N(c3ccc4c(c3)OCO4)C2)n1` (stereo not shown) it is -0.13 K.
The figure for `COc1ccc(CN2C(=O)/C(=C/NNC(=O)CC34CC5CC(CC(C5)C3)C4)c3ccccc3C2=O)cc1` is 0.06 K; for `O=C(Cc1ccc(-c2ccccc2)cc1)Nc1cccc(S(=O)(=O)N2CCOCC2)c1` it is 0.11 K; for `N#Cc1c(NC(=O)c2cnc3ccccc3n2)sc2c1CCCCC2` it is -0.11 K.
As for `Cc1ccc(N(C)S(=O)(=O)c2cccc(C(=O)OCc3nnsc3Cl)c2)cc1`, the “TSA(with NAD+) / Primary screening (TSA) / delta Tm (K)” value is listed as -0.21 K.
On to `COC1CCCC1NC(=O)Cc1sc(S)nc1C` (stereo not shown), for which the “TSA(with NAD+) / Primary screening (TSA) / delta Tm (K)” value is given as -0.26 K.
To `Cc1nc(/C=C/C(=O)NC(C)C(=O)NCc2ccco2)cs1` (stereo not shown) belongs -0.06 K.
To `CC(N)C(N)=O` (stereo not shown) belongs -0.19 K.
Turning to `CCN(C(=O)CSc1nc(N)nc(N)n1)C1=CCCC1`, the “TSA(with NAD+) / Primary screening (TSA) / delta Tm (K)” value amounted to 0.15 K.
For `CC(c1ccc(-n2cnc3ccccc32)cc1)N(C)C(=S)Nc1ccccc1` (stereo not shown), the “TSA(with NAD+) / Primary screening (TSA) / delta Tm (K)” value was 0.01 K.
Turning to `CC(OC(=O)C1=C(Nc2ccccc2)OCC1=O)c1ccccc1Cl` (stereo not shown), the “TSA(with NAD+) / Primary screening (TSA) / delta Tm (K)” value is -0.08 K.
For the compound `CON(C)C(=O)Cn1c2ccccc2c(=O)c2ccccc21`, the “TSA(with NAD+) / Primary screening (TSA) / delta Tm (K)” value is 0.09 K.
The figure for `CCCOc1cccc(C2C(C(=O)/C=C/c3ccco3)=C(O)C(=O)N2CCCN2CCOCC2)c1` (stereo not shown) is 0.06 K.
On to `CCOC(=O)c1sc2nc(C)nc(N3CCN(S(=O)(=O)c4cccs4)CC3)c2c1C`, for which the “TSA(with NAD+) / Primary screening (TSA) / delta Tm (K)” value is recorded as 0.05 K.
To `Cc1ccc(N(C)S(=O)(=O)c2cccc(C(=O)OCc3ccc(C(C)(C)C)cc3)c2)cc1` belongs 0.16 K.
To `CC(C)(C)c1ccc(COc2ccc3c4c(c(=O)oc3c2)CCC4)cc1` belongs -0.23 K; to `Cc1[nH]c2ccccc2c1C(=O)C(C)N1CCC(C(N)=O)CC1` (stereo not shown), -0.04 K.
Turning to `O=C(C1=C(O)C(=O)N(CCCN2CCOCC2)C1c1ccc(Cl)c(Cl)c1)c1ccco1` (stereo not shown), the “TSA(with NAD+) / Primary screening (TSA) / delta Tm (K)” value is recorded as 0.01 K.
On to `CC(NS(C)(=O)=O)C(=O)O` (stereo not shown), for which the “TSA(with NAD+) / Primary screening (TSA) / delta Tm (K)” value is -0.14 K.
Consider `CCOC(=O)c1sc(N(Cc2ccccc2)C(=O)CSc2nnc(C3CC3)n2N)nc1C`, for which the “TSA(with NAD+) / Primary screening (TSA) / delta Tm (K)” value is reported as -0.29 K.
As for `COc1ccc(C(C)=O)c2ccccc12`, the “TSA(with NAD+) / Primary screening (TSA) / delta Tm (K)” value is on record as -0.26 K.
To `CCCOc1cccc(C2C(C(=O)c3ccc(OC)cc3)=C(O)C(=O)N2CCCN2CCOCC2)c1` (stereo not shown) belongs -0.13 K; to `NC(=O)c1ncn(-c2ccncc2)c1N`, -0.06 K; to `O=C(CCCN1C(=O)c2cccc3cccc(c23)C1=O)NNC(=O)CC12CC3CC(CC(C3)C1)C2`, 0.05 K.
Take `CCC(C)NC(=O)CSc1nnc(-c2c[nH]c3ccccc23)n1Cc1ccco1` (stereo not shown): the “TSA(with NAD+) / Primary screening (TSA) / delta Tm (K)” value is reported as -0.01 K.
To `COCCCn1ccc(Nc2nc(C)nc3[nH]ccc23)n1` belongs -0.03 K; to `COc1ccc(C(CNC(=O)C2=COCCO2)c2c[nH]c3ccccc23)cc1` (stereo not shown), -0.16 K; to `CSc1ncc(C(=O)OCC(N)=O)n1-c1ccccc1`, -0.16 K.
